Results taken from PMC10810029.
No constants are given. Whether binding was seen depends on the method and setting. In cells and extracts the contact can be indirect. Some binding calls cover weakened binding; strength is not graded here. Blank lines part the entries; values can stand above or below the molecule they belong to.

The chains behind the UniProt entries cited, without tags or fusion partners.
UniProt Q5JVF3: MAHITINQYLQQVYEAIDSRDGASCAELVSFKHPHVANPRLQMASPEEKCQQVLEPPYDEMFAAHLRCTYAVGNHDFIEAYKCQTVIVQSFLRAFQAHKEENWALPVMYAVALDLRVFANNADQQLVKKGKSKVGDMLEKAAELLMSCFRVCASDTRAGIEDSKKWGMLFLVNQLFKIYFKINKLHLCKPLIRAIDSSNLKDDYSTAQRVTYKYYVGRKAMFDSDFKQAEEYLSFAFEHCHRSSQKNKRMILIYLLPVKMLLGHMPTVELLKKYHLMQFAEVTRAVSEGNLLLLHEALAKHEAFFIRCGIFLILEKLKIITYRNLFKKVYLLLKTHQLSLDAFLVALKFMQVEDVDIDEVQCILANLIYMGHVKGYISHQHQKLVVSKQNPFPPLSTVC
UniProt O60318: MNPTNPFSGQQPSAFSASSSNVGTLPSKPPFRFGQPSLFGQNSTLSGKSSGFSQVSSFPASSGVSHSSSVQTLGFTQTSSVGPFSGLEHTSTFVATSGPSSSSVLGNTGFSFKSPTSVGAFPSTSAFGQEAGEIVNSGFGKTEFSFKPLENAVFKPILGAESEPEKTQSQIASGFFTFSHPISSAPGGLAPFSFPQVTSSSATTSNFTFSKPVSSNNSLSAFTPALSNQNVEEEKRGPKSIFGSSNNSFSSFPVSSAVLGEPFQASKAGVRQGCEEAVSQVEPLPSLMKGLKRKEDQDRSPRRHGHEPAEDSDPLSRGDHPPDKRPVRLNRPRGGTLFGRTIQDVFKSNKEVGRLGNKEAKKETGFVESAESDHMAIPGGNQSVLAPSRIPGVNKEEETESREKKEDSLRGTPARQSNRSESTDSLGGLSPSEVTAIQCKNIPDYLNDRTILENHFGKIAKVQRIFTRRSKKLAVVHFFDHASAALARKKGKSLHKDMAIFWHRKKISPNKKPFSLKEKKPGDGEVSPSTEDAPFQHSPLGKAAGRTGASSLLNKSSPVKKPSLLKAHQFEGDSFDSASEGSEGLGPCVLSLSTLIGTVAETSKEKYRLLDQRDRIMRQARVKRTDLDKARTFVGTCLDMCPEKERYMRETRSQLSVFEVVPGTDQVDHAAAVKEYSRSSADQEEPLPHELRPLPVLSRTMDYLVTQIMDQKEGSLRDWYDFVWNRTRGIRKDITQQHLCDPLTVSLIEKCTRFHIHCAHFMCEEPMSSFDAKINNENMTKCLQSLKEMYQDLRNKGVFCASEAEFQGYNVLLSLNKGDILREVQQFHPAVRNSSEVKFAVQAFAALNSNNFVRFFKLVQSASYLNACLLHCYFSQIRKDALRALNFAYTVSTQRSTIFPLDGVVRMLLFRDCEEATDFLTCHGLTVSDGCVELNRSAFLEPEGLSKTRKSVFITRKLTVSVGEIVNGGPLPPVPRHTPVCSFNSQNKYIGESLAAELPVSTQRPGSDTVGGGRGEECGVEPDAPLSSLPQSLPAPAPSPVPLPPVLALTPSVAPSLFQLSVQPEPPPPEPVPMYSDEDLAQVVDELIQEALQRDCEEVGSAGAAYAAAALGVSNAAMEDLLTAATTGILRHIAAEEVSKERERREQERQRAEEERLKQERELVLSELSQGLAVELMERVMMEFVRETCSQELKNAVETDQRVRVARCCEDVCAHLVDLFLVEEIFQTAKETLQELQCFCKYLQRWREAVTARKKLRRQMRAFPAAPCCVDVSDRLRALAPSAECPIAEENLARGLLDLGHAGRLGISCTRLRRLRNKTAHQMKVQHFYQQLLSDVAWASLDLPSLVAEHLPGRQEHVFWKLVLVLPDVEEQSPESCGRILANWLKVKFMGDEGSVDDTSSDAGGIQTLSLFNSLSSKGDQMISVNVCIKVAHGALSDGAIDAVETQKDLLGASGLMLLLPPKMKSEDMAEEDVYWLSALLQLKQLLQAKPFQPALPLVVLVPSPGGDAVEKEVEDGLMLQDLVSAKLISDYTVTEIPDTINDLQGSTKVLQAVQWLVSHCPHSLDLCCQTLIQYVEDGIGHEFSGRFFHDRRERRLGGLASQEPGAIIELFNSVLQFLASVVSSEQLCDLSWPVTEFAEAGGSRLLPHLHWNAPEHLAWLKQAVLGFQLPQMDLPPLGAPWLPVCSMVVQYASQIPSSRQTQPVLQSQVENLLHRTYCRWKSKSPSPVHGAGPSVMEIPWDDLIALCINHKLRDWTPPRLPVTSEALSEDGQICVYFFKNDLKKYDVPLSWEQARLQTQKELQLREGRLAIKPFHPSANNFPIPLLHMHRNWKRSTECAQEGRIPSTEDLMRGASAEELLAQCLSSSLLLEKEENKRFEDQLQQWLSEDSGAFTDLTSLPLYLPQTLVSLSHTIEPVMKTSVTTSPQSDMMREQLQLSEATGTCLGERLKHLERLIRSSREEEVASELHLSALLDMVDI

What was measured:
[1] = biological target: T1, Orc4 subunit of human ORC (human (endogenous in HEK293T; also A375)) (UniProt O43929); assay: co-IP; endogenous proteins precipitated from total HEK293T lysates with affinity-purified rabbit polyclonal antibodies to GANP, PCID2, Orc3 or Orc4, Western blot; lysates treated with DNase I and RNase A; phosphatase inhibitors added
T1 sequence: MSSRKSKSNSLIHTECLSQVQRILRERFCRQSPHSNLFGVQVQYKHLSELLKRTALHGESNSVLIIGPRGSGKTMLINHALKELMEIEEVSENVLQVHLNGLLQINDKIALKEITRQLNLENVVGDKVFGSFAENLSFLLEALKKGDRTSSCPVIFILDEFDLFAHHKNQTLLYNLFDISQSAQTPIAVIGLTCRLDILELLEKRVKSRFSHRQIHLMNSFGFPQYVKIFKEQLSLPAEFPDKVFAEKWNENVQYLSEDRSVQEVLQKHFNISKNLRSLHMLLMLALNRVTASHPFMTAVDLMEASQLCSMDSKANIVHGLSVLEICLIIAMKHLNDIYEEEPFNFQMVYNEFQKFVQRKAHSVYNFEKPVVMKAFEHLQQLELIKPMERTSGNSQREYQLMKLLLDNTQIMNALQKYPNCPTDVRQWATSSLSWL

[2] = biological target: T2, Orc3 subunit of human ORC (human (endogenous in HEK293T; also A375)) (UniProt Q9UBD5); assay: as above
T2 sequence: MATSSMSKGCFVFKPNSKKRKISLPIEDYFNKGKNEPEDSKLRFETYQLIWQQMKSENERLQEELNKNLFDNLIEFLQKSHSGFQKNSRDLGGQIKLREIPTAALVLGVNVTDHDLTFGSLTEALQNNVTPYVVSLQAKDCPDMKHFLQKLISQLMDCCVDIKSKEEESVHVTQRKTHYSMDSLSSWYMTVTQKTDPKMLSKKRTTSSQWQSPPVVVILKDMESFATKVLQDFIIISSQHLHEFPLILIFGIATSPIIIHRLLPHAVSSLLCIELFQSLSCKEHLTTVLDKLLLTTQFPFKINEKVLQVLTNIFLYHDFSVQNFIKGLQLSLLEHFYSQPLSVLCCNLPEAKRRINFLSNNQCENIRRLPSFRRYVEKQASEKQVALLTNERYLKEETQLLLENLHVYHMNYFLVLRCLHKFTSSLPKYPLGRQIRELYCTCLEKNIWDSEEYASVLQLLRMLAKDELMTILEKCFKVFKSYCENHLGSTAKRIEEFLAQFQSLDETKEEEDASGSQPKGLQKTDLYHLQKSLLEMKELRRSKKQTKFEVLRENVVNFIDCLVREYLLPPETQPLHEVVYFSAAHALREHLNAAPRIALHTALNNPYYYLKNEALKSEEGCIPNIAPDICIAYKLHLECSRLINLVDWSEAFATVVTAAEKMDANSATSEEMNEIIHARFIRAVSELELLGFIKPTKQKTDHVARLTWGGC

[3] = biological target: PCID2, major low-molecular weight form of approximately 41 kDa (subunit of human TREX-2) (human (endogenous in HEK293T; also A375)) (UniProt Q5JVF3); assay: as above
[4] = biological target: GANP protein, full-length (subunit of human TREX-2, Xmas-2 homologue) (human (endogenous in HEK293T; also A375)) (UniProt O60318); assay: as above
[5] = biological target: PCID2, major low-molecular weight form of approximately 41 kDa (subunit of human TREX-2) (human (endogenous in HEK293T; also A375)) (UniProt Q5JVF3); assay: co-IP; immunocoprecipitation from human A375 cell lysates under similar conditions; no figure given
[6] = biological target: GANP protein, full-length (subunit of human TREX-2, Xmas-2 homologue) (human (endogenous in HEK293T; also A375)) (UniProt O60318); assay: as above

binding [1]: binds
binding [2]: binds
Molecule: PCID2, major low-molecular weight form of approximately 41 kDa (subunit of human TREX-2) (from UniProt Q5JVF3 1-399)

binding [1]: binds
binding [2]: binds
Molecule: GANP protein, full-length (subunit of human TREX-2, Xmas-2 homologue) (from UniProt O60318 1-1980)

binding [3]: binds
binding [4]: binds
binding [5]: binds
binding [6]: binds
B1: Orc3 subunit of human ORC (protein, UniProt Q9UBD5 1-711)
chain: T2 sequence
